Counter-ions that a name gives are not always drawn. Some of the results follow. Hit calls seldom repeat between salt and free forms of one compound.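 Kinases, fused to nanoluciferase, were expressed in K562 cells; luminescence was measured every 4 h from 2 to 18 h as percent of control (DMSO = 100%, positive control = 0%). A time point is decreased if signal falls significantly (2 sigma). Hits were called by the authors by a rule that is not shown; the count of time points alone does not decide it.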
What was measured:
Experiment in all cases: kinase-Nluc reporter destabilization hit call (1 = scored as downregulated) (binary); higher = compound decreases kinase abundance
Details in all cases: K562; 2-18 h
IRAK3 = IRAK3 (UniProt Q9Y616)
JAK1 = JAK1 (UniProt P23458)
LCK = LCK (UniProt P06239)
LIMK1 = LIMK1 (UniProt P53667)
LIMK2 = LIMK2 (UniProt P53671)
LMTK2 = LMTK2 (UniProt Q8IWU2)
LYN = LYN (UniProt P07948)
MAP2K1 = MAP2K1 (UniProt Q02750)
MAP2K2 = MAP2K2 (UniProt P36507)
MAP4K2 = MAP4K2 (UniProt Q12851)
MAPK1 = MAPK1 (UniProt P28482)
MAPK4 = MAPK4 (UniProt P31152)
MAPKAPK2 = MAPKAPK2 (UniProt P49137)
MKNK1 = MKNK1 (UniProt Q9BUB5)
NTRK2 = NTRK2 (UniProt Q16620)
NTRK3 = NTRK3 (UniProt Q16288)
PAK4 = PAK4 (UniProt O96013)
PBK = PBK (UniProt Q96KB5)
PDGFRB = PDGFRB (UniProt P09619)
PDK1 = PDK1 (UniProt Q15118)

Sequences of proteins named here, by UniProt entry; tags and fusion partners are left off. A change or cut given only in a name is not applied to a line headed by its entry.
UniProt Q9Y616: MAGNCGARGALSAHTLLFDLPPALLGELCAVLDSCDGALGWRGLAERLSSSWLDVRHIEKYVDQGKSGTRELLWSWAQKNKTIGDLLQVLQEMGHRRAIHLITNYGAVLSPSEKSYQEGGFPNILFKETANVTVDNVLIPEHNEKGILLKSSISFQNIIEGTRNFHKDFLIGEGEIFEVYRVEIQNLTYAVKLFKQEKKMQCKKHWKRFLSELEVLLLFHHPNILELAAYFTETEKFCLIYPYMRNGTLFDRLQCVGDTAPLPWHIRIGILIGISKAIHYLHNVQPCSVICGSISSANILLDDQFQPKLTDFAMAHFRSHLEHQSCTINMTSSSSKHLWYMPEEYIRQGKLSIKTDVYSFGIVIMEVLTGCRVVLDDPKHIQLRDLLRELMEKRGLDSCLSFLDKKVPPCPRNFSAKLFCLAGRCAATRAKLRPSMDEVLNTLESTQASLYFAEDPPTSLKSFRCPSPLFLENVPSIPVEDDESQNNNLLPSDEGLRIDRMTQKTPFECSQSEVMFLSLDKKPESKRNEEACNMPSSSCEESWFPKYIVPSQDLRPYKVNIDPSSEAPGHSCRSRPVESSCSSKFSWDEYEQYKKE
UniProt Q8IWU2: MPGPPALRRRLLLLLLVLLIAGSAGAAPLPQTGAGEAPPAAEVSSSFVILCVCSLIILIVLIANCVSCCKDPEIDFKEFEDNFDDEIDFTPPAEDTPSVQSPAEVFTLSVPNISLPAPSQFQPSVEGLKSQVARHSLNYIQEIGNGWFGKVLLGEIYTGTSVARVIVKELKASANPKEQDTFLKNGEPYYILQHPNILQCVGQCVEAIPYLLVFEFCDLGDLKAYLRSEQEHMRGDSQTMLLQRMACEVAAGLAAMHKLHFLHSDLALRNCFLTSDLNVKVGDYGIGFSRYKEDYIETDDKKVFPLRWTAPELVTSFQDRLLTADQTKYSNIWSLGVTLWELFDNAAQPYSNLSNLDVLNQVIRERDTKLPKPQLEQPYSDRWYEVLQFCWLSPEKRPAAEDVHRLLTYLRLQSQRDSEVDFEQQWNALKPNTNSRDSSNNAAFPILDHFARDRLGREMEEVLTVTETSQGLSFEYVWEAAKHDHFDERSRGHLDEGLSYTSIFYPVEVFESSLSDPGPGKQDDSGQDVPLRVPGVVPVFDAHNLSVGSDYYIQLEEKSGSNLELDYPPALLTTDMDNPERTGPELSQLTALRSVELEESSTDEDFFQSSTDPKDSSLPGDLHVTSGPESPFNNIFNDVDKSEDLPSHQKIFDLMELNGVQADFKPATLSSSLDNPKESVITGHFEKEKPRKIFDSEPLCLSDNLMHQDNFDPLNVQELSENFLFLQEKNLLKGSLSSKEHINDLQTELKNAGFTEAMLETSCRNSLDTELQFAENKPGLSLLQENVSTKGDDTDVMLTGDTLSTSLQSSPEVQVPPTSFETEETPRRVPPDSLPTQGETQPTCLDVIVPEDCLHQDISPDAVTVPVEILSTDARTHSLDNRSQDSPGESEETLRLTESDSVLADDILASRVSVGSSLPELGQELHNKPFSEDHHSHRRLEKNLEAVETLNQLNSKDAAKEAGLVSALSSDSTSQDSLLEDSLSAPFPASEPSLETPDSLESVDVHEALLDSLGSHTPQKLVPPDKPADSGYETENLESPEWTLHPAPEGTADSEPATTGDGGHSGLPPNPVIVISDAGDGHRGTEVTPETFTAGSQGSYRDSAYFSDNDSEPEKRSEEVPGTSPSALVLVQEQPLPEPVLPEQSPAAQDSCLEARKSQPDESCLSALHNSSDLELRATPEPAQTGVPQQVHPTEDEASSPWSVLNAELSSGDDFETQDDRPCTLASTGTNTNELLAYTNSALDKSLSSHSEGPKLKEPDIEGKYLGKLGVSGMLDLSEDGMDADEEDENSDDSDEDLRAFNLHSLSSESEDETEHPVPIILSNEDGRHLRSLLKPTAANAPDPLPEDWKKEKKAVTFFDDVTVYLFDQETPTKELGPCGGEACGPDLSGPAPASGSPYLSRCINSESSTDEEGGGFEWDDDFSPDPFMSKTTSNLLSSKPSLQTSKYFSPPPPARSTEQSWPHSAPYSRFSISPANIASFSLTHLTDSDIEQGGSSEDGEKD
UniProt P07948: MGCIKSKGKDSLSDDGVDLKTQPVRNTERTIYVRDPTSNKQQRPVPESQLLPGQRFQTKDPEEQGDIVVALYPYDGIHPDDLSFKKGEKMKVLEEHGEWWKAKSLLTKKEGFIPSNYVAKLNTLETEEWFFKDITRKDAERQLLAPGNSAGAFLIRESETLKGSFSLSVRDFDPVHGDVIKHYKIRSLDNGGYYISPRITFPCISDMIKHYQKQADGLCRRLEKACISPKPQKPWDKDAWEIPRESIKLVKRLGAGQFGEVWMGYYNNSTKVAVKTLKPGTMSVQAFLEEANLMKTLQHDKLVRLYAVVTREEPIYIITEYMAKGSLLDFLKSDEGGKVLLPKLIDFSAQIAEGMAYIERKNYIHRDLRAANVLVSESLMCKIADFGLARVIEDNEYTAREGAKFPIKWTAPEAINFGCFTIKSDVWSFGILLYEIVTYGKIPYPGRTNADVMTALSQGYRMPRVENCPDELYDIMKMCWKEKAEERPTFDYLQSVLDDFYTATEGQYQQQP
UniProt Q12851: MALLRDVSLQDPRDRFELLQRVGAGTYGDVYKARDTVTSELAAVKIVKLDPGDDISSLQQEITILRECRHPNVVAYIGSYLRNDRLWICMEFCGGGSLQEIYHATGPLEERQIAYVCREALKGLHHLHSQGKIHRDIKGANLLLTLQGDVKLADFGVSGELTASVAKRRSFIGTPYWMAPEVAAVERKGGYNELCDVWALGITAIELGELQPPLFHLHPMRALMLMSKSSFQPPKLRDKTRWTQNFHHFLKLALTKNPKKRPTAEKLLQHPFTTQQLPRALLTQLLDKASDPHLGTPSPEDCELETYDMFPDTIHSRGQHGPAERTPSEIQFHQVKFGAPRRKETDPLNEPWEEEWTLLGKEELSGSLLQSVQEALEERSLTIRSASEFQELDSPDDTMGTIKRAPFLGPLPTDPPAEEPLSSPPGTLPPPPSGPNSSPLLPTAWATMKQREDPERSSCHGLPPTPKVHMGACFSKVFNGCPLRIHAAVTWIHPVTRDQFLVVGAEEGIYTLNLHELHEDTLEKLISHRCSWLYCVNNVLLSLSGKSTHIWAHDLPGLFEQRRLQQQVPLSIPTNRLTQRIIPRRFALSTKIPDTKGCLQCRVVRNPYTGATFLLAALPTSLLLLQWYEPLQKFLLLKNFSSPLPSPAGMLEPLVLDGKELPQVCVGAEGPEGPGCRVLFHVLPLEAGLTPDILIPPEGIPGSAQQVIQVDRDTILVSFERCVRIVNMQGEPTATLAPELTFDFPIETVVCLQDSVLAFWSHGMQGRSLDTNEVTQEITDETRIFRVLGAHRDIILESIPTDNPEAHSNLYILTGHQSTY
UniProt P28482, whole entry: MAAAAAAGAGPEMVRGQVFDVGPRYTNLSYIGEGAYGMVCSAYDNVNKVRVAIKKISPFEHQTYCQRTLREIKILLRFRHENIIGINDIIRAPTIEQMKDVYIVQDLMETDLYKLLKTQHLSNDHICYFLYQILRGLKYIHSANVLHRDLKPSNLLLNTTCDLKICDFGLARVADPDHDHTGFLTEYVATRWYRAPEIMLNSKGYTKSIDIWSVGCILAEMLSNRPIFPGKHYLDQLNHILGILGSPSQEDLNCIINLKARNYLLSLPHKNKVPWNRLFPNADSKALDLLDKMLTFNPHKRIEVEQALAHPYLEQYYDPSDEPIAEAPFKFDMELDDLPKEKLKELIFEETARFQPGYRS
UniProt P31152, whole entry: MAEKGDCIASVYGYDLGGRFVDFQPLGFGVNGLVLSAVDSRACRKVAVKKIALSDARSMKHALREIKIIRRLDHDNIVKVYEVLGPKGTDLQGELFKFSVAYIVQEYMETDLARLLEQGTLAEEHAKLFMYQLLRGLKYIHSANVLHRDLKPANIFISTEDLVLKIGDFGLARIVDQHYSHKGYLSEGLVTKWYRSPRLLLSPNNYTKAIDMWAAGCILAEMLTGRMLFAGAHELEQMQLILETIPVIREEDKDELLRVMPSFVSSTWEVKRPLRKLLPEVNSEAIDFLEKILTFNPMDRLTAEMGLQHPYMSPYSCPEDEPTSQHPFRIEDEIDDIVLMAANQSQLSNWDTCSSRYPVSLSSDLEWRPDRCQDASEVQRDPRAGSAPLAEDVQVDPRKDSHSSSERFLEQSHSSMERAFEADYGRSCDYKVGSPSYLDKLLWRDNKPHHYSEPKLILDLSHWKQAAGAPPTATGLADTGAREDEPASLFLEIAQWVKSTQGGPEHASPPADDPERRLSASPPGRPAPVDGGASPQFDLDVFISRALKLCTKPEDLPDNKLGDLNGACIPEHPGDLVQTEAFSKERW
UniProt P49137, whole entry, looked up: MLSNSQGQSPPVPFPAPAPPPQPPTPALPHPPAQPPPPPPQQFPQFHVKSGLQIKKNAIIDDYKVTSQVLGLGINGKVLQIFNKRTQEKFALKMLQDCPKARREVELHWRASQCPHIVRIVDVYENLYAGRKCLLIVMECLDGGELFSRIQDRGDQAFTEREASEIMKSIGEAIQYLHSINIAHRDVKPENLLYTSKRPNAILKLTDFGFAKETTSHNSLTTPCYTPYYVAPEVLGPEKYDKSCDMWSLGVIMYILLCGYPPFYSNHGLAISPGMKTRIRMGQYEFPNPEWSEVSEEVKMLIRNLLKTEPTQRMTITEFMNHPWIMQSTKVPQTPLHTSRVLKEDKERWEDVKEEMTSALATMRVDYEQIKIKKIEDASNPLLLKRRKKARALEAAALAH
UniProt O96013: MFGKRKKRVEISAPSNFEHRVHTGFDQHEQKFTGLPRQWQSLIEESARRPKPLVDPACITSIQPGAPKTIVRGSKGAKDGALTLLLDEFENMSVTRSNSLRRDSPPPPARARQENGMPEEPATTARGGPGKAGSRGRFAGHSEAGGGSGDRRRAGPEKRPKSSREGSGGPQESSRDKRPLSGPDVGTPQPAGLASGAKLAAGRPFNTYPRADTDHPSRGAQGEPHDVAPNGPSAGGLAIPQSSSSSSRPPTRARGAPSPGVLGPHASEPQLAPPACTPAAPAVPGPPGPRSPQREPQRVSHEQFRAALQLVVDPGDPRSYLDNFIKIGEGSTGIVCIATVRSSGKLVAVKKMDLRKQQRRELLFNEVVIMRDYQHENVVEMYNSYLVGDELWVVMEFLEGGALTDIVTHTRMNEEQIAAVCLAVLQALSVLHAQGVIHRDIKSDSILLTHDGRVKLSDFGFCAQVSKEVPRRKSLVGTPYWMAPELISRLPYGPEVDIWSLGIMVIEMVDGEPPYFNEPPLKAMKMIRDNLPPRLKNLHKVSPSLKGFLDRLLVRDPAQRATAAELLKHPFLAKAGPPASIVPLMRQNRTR
UniProt P09619, whole entry: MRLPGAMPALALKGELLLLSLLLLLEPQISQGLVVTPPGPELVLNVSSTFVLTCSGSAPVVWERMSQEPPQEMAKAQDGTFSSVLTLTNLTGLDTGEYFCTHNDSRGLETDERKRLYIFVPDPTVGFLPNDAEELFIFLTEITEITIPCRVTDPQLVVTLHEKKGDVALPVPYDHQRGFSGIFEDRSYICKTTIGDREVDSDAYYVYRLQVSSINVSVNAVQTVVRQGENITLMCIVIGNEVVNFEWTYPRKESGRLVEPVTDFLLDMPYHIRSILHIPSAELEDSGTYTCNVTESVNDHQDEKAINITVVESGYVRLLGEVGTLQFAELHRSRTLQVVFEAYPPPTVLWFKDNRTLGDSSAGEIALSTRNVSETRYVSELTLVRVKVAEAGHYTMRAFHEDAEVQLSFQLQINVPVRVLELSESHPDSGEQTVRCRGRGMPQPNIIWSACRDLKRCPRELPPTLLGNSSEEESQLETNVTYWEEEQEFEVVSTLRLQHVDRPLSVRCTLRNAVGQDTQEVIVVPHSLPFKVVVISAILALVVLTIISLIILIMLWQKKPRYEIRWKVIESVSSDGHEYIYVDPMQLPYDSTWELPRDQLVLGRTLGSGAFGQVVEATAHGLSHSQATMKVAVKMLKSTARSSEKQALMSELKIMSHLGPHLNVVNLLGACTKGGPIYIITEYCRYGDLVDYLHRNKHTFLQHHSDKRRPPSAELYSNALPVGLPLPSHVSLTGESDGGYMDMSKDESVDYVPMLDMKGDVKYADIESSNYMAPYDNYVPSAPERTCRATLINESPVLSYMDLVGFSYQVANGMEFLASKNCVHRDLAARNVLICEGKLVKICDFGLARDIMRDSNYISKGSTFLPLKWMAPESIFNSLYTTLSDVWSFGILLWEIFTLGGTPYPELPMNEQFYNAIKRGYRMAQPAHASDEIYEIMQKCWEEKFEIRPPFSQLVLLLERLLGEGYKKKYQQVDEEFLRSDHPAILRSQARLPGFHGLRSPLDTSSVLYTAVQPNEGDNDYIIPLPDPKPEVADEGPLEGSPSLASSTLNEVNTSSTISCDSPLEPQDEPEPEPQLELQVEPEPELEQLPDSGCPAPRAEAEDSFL

Measured: kinase-Nluc reporter destabilization hit call

COc1cc2nccc(Oc3ccc(NC(=O)NC4CC4)c(Cl)c3)c2cc1C(N)=O [Lenvatinib (mesylate)] (10 µM)
inactive: IRAK3 = 0 | JAK1 = 0 | LCK 0 | LIMK1 = 0 | LIMK2 = 0 | LMTK2 = 0 | LYN 0 | MAP2K1 = 0 | MAP2K2 = 0 | MAP4K2 = 0 | MAPK1 = 0 | MAPK4 = 0 | MAPKAPK2 = 0 | MKNK1 = 0 | NTRK2 = 0 | NTRK3 = 0 | PAK4 = 0 | PBK 0 | PDGFRB 0 | PDK1 = 0

Cc1ccc(C(=O)Nc2ccc(Oc3cc4cnn(C)c4cc3-c3cn[nH]c3)c(F)c2)c(=O)n1-c1ccc(F)cc1 [Merestinib dihydrochloride] (2.5 µM)
inactive: IRAK3 = 0 | JAK1 = 0 | LCK 0 | LIMK1 = 0 | LIMK2 = 0 | LMTK2 = 0 | LYN 0 | MAP2K1 = 0 | MAP2K2 = 0 | MAP4K2 = 0 | MAPK1 = 0 | MAPK4 = 0 | MAPKAPK2 = 0 | MKNK1 = 0 | NTRK2 = 0 | NTRK3 = 0 | PAK4 = 0 | PBK 0 | PDGFRB 0 | PDK1 = 0

Cn1cnc2c(F)c(Nc3ccc(Br)cc3Cl)c(C(=O)NOCCO)cc21 [Selumetinib (sulfate)] (10 µM)
inactive: IRAK3 = 0 | JAK1 = 0 | LCK 0 | LIMK1 = 0 | LIMK2 = 0 | LMTK2 = 0 | LYN 0 | MAP2K1 = 0 | MAP2K2 = 0 | MAP4K2 = 0 | MAPK1 = 0 | MAPK4 = 0 | MAPKAPK2 = 0 | MKNK1 = 0 | NTRK2 = 0 | NTRK3 = 0 | PAK4 = 0 | PBK 0 | PDGFRB 0 | PDK1 = 0

CCCCCCCCCCCCC/C=C/[C@@H](O)[C@@H](N)CO [D-erythro-Sphingosine] (2.5 µM)
inactive: IRAK3 = 0 | JAK1 = 0 | LCK 0 | LIMK1 = 0 | LIMK2 = 0 | LMTK2 = 0 | LYN 0 | MAP2K1 = 0 | MAP2K2 = 0 | MAP4K2 = 0 | MAPK1 = 0 | MAPK4 = 0 | MAPKAPK2 = 0 | MKNK1 = 0 | NTRK2 = 0 | NTRK3 = 0 | PAK4 = 0 | PBK 0 | PDGFRB 0 | PDK1 = 0

O=Nc1c(-c2c(O)[nH]c3ccc(F)cc23)[nH]c2ccccc12 [5'-Fluoroindirubinoxime] (10 µM)
inactive: IRAK3 = 0 | JAK1 = 0 | LCK 0 | LIMK1 = 0 | LIMK2 = 0 | LMTK2 = 0 | LYN 0 | MAP2K1 = 0 | MAP2K2 = 0 | MAP4K2 = 0 | MAPK1 = 0 | MAPK4 = 0 | MAPKAPK2 = 0 | MKNK1 = 0 | NTRK2 = 0 | NTRK3 = 0 | PAK4 = 0 | PBK 0 | PDGFRB 0 | PDK1 = 0

Two successive entries out of the list so far:
Cn1cnc2c(F)c(Nc3ccc(Br)cc3Cl)c(C(=O)NOCCO)cc21 [Selumetinib (sulfate)] (10 µM)
inactive: IRAK3 = 0 | JAK1 = 0 | LCK 0 | LIMK1 = 0 | LIMK2 = 0 | LMTK2 = 0 | LYN 0 | MAP2K1 = 0 | MAP2K2 = 0 | MAP4K2 = 0 | MAPK1 = 0 | MAPK4 = 0 | MAPKAPK2 = 0 | MKNK1 = 0 | NTRK2 = 0 | NTRK3 = 0 | PAK4 = 0 | PBK 0 | PDGFRB 0 | PDK1 = 0

CCCCCCCCCCCCC/C=C/[C@@H](O)[C@@H](N)CO [D-erythro-Sphingosine] (2.5 µM)
inactive: IRAK3 = 0 | JAK1 = 0 | LCK 0 | LIMK1 = 0 | LIMK2 = 0 | LMTK2 = 0 | LYN 0 | MAP2K1 = 0 | MAP2K2 = 0 | MAP4K2 = 0 | MAPK1 = 0 | MAPK4 = 0 | MAPKAPK2 = 0 | MKNK1 = 0 | NTRK2 = 0 | NTRK3 = 0 | PAK4 = 0 | PBK 0 | PDGFRB 0 | PDK1 = 0

Next results:

C[C@@H]1COCCN1c1cc(C2([S@@](C)(=N)=O)CC2)nc(-c2ccnc3[nH]ccc23)n1 [(S)-Ceralasertib] (10 µM)
inactive: IRAK3 = 0 | JAK1 = 0 | LCK 0 | LIMK1 = 0 | LIMK2 = 0 | LMTK2 = 0 | LYN 0 | MAP2K1 = 0 | MAP2K2 = 0 | MAP4K2 = 0 | MAPK1 = 0 | MAPK4 = 0 | MAPKAPK2 = 0 | MKNK1 = 0 | NTRK2 = 0 | NTRK3 = 0 | PAK4 = 0 | PBK 0 | PDGFRB 0 | PDK1 = 0

Cc1cc(O)c2c(c1)C(=O)c1cc(O)cc(O)c1C2=O [Emodin] (10 µM)
inactive: IRAK3 = 0 | JAK1 = 0 | LCK 0 | LIMK1 = 0 | LIMK2 = 0 | LMTK2 = 0 | LYN 0 | MAP2K1 = 0 | MAP2K2 = 0 | MAP4K2 = 0 | MAPK1 = 0 | MAPK4 = 0 | MAPKAPK2 = 0 | MKNK1 = 0 | NTRK2 = 0 | NTRK3 = 0 | PAK4 = 0 | PBK 0 | PDGFRB 0 | PDK1 = 0

Cc1cc(Nc2ncnc3ccc(NC4=NC(C)(C)CO4)cc23)ccc1Oc1ccn2ncnc2c1 [Tucatinib (hemiethanolate)] (2.5 µM)
inactive: IRAK3 = 0 | JAK1 = 0 | LCK 0 | LIMK1 = 0 | LIMK2 = 0 | LMTK2 = 0 | LYN 0 | MAP2K1 = 0 | MAP2K2 = 0 | MAP4K2 = 0 | MAPK1 = 0 | MAPK4 = 0 | MAPKAPK2 = 0 | MKNK1 = 0 | NTRK2 = 0 | NTRK3 = 0 | PAK4 = 0 | PBK 0 | PDGFRB 0 | PDK1 = 0

C[C@@]1(c2ncncc2F)NC(=O)c2cc(-c3cn[nH]c3)ccc21 (10 µM)
inactive: IRAK3 = 0 | JAK1 = 0 | LCK 0 | LIMK1 = 0 | LIMK2 = 0 | LMTK2 = 0 | LYN 0 | MAP2K1 = 0 | MAP2K2 = 0 | MAP4K2 = 0 | MAPK1 = 0 | MAPK4 = 0 | MAPKAPK2 = 0 | MKNK1 = 0 | NTRK2 = 0 | NTRK3 = 0 | PAK4 = 0 | PBK 0 | PDGFRB 0 | PDK1 = 0

Cn1nccc1Nc1nccc(-c2ccn([C@H](CO)c3ccc(Cl)c(F)c3)c(=O)c2)n1 [Ravoxertinib hydrochloride] (10 µM)
inactive: IRAK3 = 0 | JAK1 = 0 | LCK 0 | LIMK1 = 0 | LIMK2 = 0 | LMTK2 = 0 | LYN 0 | MAP2K1 = 0 | MAP2K2 = 0 | MAP4K2 = 0 | MAPK1 = 0 | MAPK4 = 0 | MAPKAPK2 = 0 | MKNK1 = 0 | NTRK2 = 0 | NTRK3 = 0 | PAK4 = 0 | PBK 0 | PDGFRB 0 | PDK1 = 0

CCCS(=O)(=O)Nc1ccc(F)c(C(=O)c2c[nH]c3ncc(-c4ccc(Cl)cc4)cc23)c1F [Vemurafenib] (10 µM)
inactive: IRAK3 = 0 | JAK1 = 0 | LCK 0 | LIMK1 = 0 | LIMK2 = 0 | LMTK2 = 0 | LYN 0 | MAP2K1 = 0 | MAP2K2 = 0 | MAP4K2 = 0 | MAPK1 = 0 | MAPK4 = 0 | MAPKAPK2 = 0 | MKNK1 = 0 | NTRK2 = 0 | NTRK3 = 0 | PAK4 = 0 | PBK 0 | PDGFRB 0 | PDK1 = 0

Nc1nc(F)nc2c1ncn2[C@@H]1O[C@H](CO)[C@@H](O)[C@@H]1O [Fludarabine] (10 µM)
inactive: IRAK3 = 0 | JAK1 = 0 | LCK 0 | LIMK1 = 0 | LIMK2 = 0 | LMTK2 = 0 | LYN 0 | MAP2K1 = 0 | MAP2K2 = 0 | MAP4K2 = 0 | MAPK1 = 0 | MAPK4 = 0 | MAPKAPK2 = 0 | MKNK1 = 0 | NTRK2 = 0 | NTRK3 = 0 | PAK4 = 0 | PBK 0 | PDGFRB 0 | PDK1 = 0

c1ccc(-c2[nH]ncc2-c2ccnc3ccccc23)nc1 (10 µM)
inactive: IRAK3 = 0 | JAK1 = 0 | LCK 0 | LIMK1 = 0 | LIMK2 = 0 | LMTK2 = 0 | LYN 0 | MAP2K1 = 0 | MAP2K2 = 0 | MAP4K2 = 0 | MAPK1 = 0 | MAPK4 = 0 | MAPKAPK2 = 0 | MKNK1 = 0 | NTRK2 = 0 | NTRK3 = 0 | PAK4 = 0 | PBK 0 | PDGFRB 0 | PDK1 = 0

CC(C)(C)c1nc(-c2cccc(NS(=O)(=O)c3c(F)cccc3F)c2F)c(-c2ccnc(N)n2)s1 [Dabrafenib] (2.5 µM)
inactive: IRAK3 = 0 | JAK1 = 0 | LCK 0 | LIMK2 = 0 | LMTK2 = 0 | LYN 0 | MAP2K1 = 0 | MAP2K2 = 0 | MAP4K2 = 0 | MAPK1 = 0 | MAPK4 = 0 | MAPKAPK2 = 0 | MKNK1 = 0 | NTRK2 = 0 | NTRK3 = 0 | PAK4 = 0 | PBK 0 | PDGFRB 0 | PDK1 = 0
active: LIMK1 = 1

Nc1ncnc2c1c(-c1cccc(OCc3ccccc3)c1)cn2C1CC(CN2CCC2)C1 (stereo not given) (2.5 µM)
inactive: IRAK3 = 0 | JAK1 = 0 | LCK 0 | LIMK1 = 0 | LIMK2 = 0 | LMTK2 = 0 | LYN 0 | MAP2K1 = 0 | MAP2K2 = 0 | MAP4K2 = 0 | MAPK1 = 0 | MAPK4 = 0 | MAPKAPK2 = 0 | MKNK1 = 0 | NTRK2 = 0 | NTRK3 = 0 | PAK4 = 0 | PBK 0 | PDGFRB 0 | PDK1 = 0

O=C(NOCC(O)CO)c1cc(Br)c(F)c(F)c1Nc1ccc(I)cc1F (stereo not given) (2.5 µM)
inactive: IRAK3 = 0 | JAK1 = 0 | LCK 0 | LIMK1 = 0 | LIMK2 = 0 | LMTK2 = 0 | LYN 0 | MAP2K1 = 0 | MAP2K2 = 0 | MAP4K2 = 0 | MAPK1 = 0 | MAPK4 = 0 | MAPKAPK2 = 0 | MKNK1 = 0 | NTRK2 = 0 | NTRK3 = 0 | PAK4 = 0 | PBK 0 | PDGFRB 0 | PDK1 = 0

C=C1C(=O)O[C@H]2C[C@H](C)C(/C=C/C(C)=O)=CC[C@H]12 [Xanthatin] (2.5 µM)
inactive: IRAK3 = 0 | JAK1 = 0 | LCK 0 | LIMK1 = 0 | LIMK2 = 0 | LMTK2 = 0 | LYN 0 | MAP2K1 = 0 | MAP2K2 = 0 | MAP4K2 = 0 | MAPK1 = 0 | MAPK4 = 0 | MAPKAPK2 = 0 | MKNK1 = 0 | NTRK2 = 0 | NTRK3 = 0 | PAK4 = 0 | PBK 0 | PDGFRB 0 | PDK1 = 0

Oc1cc2c(cc1O)C(Cc1cccc3ccccc13)NCC2 (stereo not given) (10 µM)
inactive: IRAK3 = 0 | JAK1 = 0 | LCK 0 | LIMK1 = 0 | LIMK2 = 0 | LMTK2 = 0 | LYN 0 | MAP2K1 = 0 | MAP2K2 = 0 | MAP4K2 = 0 | MAPK1 = 0 | MAPK4 = 0 | MAPKAPK2 = 0 | MKNK1 = 0 | NTRK2 = 0 | NTRK3 = 0 | PAK4 = 0 | PBK 0 | PDGFRB 0 | PDK1 = 0

— the supplement of paper PMC12823440, “Inhibitors supercharge kinase turnover through native proteolytic circuits” (Nature, 2025)
